From article PMC4416010
Results are given in words; binding and its absence hold for the method and conditions named. Some binding calls cover weakened binding; strength is not graded here. Sequences can lack the tags named with a protein.

Target: T1, PkaI_(257-380) interaction domain fused to the Cya-T18 domain (Streptomyces coelicolor A3(2)) (UniProt Q9L0H9)
T1 sequence: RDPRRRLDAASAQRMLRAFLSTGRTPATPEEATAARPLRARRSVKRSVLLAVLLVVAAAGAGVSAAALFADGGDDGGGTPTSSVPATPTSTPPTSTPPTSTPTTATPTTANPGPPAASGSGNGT
Assay: two-hybrid; bacterial two-hybrid (T18/T25 domains of B. pertussis adenylate cyclase) in E. coli cya mutant BTH101; PkaI_(257-380) on T18 (pUT18c) as bait, M145 genomic libraries in pKT25 as prey; growth on M63 minimal agar with lactose; confirmed by retransformation and sequencing

binding: binds
B1: SCO2097_(21-120) fragment of SCO2097 (domain or fragment, UniProt Q9S2V9 21-120)
chain: EDPKFATALEGSGLRTYTRRRVYQAVAGFLVGIALLMAGMVAQQVWLSVVGFLVMLGCAVLAVTGWRKAPKPGEQQQAAGAGPQAARRQGRQKRSMMDRI
